No constants are given. Whether binding was seen depends on the method and setting. Binding seen in cells or lysates may run through a third protein. Binding can be weak; no strength is given. Tags and fused reporters may be left off the sequences shown.
Tests used:
[1] = molecular target: FLAG-tagged USP19-CY-wt (cytosolic isoform of ubiquitin-specific protease 19) (human); experiment: co-IP; HEK293T cells co-transfected with FLAG-tagged USP19 (ER or CY; wt or active-site mutant) and TβRI; lysate incubated with anti-Flag agarose beads 2 h at 4 °C, beads washed five times with TNE buffer; immunoblotting for TβRI
[2] = molecular target: FLAG-tagged USP19-CY-C506A (active site mutant of the cytosolic USP19 isoform) (human); experiment: as above

binding [1]: binds | binding [2]: binds
B1: HA-tagged TGF-β type I receptor (TβRI) (receptor, UniProt P36897 34-503)
chain: LQCFCHLCTKDNFTCVTDGLCFVSVTETTDKVIHNSMCIAEIDLIPRDRPFVCAPSSKTGSVTTTYCCNQDHCNKIELPTTVKSSPGLGPVELAAVIAGPVCFVCISLMLMVYICHNRTVIHHRVPNEEDPSLDRPFISEGTTLKDLIYDMTTSGSGSGLPLLVQRTIARTIVLQESIGKGRFGEVWRGKWRGEEVAVKIFSSREERSWFREAEIYQTVMLRHENILGFIAADNKDNGTWTQLWLVSDYHEHGSLFDYLNRYTVTVEGMIKLALSTASGLAHLHMEIVGTQGKPAIAHRDLKSKNILVKKNGTCCIADLGLAVRHDSATDTIDIAPNHRVGTKRYMAPEVLDDSINMKHFESFKRADIYAMGLVFWEIARRCSIGGIHEDYQLPYYDLVPSDPSVEEMRKVVCEQKLRPNIPNRWQSCEALRVMAKIMRECWYANGAARLTALRIKKTLSQLSQQEGIKM

From article PMC9842591
